No constants are given. Whether binding was seen depends on the method and setting. Binding seen in cells or lysates may run through a third protein. These calls come from enrichment with a bait or labelling near it, and not all partners need be listed.
Target: T1, chaperonin-containing TCP1 subunit 3 (CCT3) (human (endogenous in 97 L and LM3)) (UniProt P49368)
T1 sequence: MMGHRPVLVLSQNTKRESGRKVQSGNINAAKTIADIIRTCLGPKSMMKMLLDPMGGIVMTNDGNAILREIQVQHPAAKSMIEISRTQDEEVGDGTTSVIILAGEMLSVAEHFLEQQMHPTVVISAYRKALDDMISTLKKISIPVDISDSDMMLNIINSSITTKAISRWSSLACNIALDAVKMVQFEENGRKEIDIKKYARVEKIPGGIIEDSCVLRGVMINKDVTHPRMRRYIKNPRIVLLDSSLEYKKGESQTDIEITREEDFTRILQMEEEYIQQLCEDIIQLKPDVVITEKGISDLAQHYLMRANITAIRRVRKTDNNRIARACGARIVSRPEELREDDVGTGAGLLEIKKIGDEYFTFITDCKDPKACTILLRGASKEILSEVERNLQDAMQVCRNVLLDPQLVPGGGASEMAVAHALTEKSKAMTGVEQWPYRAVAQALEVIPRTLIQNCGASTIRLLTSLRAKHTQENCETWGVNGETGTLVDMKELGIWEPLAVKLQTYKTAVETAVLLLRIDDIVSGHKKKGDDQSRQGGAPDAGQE
Test: affinity purification with mass spectrometry; immunoprecipitation of endogenous CCT3 with anti-CCT3 antibody against IgG isotype control, precipitate analysed by mass spectrometry; with and without Sorafenib treatment of the cells

The chains behind the UniProt entries cited, without tags or fusion partners.
UniProt P48643: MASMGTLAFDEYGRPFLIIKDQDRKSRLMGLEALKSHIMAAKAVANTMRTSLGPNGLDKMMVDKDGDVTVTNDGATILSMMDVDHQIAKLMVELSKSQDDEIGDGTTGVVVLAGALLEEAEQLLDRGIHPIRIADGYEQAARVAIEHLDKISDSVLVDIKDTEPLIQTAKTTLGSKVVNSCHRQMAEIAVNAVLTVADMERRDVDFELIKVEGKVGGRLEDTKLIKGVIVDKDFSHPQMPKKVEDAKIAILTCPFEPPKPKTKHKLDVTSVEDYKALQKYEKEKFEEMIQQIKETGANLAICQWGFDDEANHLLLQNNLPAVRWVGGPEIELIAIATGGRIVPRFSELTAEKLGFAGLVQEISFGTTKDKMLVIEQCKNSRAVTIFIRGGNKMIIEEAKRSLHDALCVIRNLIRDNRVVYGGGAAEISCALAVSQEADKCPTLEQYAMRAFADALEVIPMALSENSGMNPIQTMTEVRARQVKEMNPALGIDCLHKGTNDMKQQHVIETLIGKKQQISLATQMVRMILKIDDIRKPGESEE
UniProt O43707: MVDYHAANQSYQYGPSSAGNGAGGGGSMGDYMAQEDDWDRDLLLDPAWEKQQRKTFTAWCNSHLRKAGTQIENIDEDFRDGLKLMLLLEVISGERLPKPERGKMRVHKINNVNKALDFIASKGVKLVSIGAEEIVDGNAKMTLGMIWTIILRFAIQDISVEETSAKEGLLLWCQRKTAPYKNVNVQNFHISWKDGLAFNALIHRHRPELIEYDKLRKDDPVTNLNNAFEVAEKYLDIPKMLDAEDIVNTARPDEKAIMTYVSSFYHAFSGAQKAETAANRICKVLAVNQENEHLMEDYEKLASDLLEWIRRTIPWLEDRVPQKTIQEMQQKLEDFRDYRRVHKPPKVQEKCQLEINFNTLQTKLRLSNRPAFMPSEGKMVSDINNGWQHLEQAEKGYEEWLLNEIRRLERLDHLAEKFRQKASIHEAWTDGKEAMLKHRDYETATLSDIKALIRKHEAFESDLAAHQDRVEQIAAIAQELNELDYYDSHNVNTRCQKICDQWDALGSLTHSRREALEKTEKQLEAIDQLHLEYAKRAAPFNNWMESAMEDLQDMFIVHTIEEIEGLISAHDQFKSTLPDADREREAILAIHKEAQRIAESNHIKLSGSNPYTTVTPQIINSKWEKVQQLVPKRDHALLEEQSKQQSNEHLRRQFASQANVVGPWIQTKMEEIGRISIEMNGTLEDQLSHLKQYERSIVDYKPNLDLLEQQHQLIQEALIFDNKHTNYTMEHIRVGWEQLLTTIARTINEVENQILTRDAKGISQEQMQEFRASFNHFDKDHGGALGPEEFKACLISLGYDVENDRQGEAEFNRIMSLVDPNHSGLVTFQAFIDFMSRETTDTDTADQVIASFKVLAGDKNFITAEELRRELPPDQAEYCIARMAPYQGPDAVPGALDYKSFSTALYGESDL

Substance	binding
CCT5 (from UniProt P48643 1-541)	binds
ACTN4 (from UniProt O43707 1-911)	binds
